{"source": "patent US9260707B2", "about": "“Compounds for inhibition of MMP13-substrate interactions and methods of use thereof to treat osteoarthritis and cartilage degeneration” (ProteaPex Therapeutics, LLC, priority 2010, dated 2016)", "key": {"[1]": {"tested_on": "mono-iodoacetate (MIA)-induced osteoarthritis", "assay": "MIA-induced osteoarthritis, cartilage mineralization (total and bone volume), d14 and d21", "assay_type": "in vivo, rat", "set-up": "Total Volume / Bone Volume: unit not given here", "protocol": "Isolated joints were analyzed by Micro CT to measure cortical bone, trabecular bone and cartilage of the patella, femur and tibia, the production of chondrophytes and tissue mineralization in response to treatment. Total mineralization in the patella, femur and tibial cartilages, as well as subchondral bone, were calculated with Scanco μCT software. Micro-CT was conducted with a Scanco uCT 35 (Scanco Medical, Bassersdorf, Switzerland) system. Scans of 15 μm voxel size, 55 KVp, 0.36 degrees rotation step (180 degrees angular range) and a 600 ms exposure per view produced from joints immersed in phosphate buffered saline.\nAnimals were treated with MMP13-19 peptide or BMP-7 protein once a week for two (d14) or three (d21) weeks following an injection of mono-iodoacetate (MIA), a chemical agent that induces osteoarthritis pathology measurable at four weeks post injection. The samples that received saline are the positive disease control. 250 nM of MMP13-19 peptide and 50 uM BMP-7 were injected laterally below the patellar ligament. […] But, it is also known that BMP-7 is bone-inducing."}, "[2]": {"tested_on": "hypertrophic cartilage tissue extract (LTBP1-containing TGFβ large latent complex)", "assay": "Peptide binding assay, hypertrophic cartilage tissue extract", "set-up": "species or system avian", "details": "100 nM fluorescent-labeled peptide", "from_the_text": "(§1) Cartilage from day 17 avian embryo sterna was extracted with 0.5% CHAPS buffer and binding assays conducted. Scr=scrambled control; +cold=unlabeled competition. *=p<0.001 compared to scrambled. ***=p<0.001 compared to MMP13-derived peptide by ANOVA with Tukey's Analysis. (A) Resting cartilage and MMP13-19 peptide. (B) Hypertrophic cartilage and MMP13-19 peptide. (C) Hypertrophic cartilage and MMP13-10 peptide D. hypertrophic cartilage and MMP13-6 peptide.\n(§2) Twenty-five micrograms of total equal protein from cartilage CHAPS extracts or five nanograms recombinant protein of the calcium-like EGF binding domain of LTBP1 (a kind gift of Sarah Dallas) or hypertrophic cartilage from day 17 avian embryo sterna and tibial growth plate cartilage from day 14 newborn rat pups were extracted with 0.5% CHAPS buffer and eluates immunoprecipitated with polyclonal antibody to LTBP1 and then samples were plated onto poly-L-lysine coated 96 well plates. After overnight drying, the protein-coated wells were incubated with 100 nM fluorescent-labeled peptide in Tris buffered saline [150 mM NaCl, 10 mM Tris, pH 8.0] and 20% horse serum for 4 hours at 16° C. After incubation, the wells are washed twice with binding buffer, the protein layer solubilized with 5N NaOH and fluorescence bound measured at 495 nm excitation and 520 nm emission on the LabSystems Fluoroskan Ascent CF plate reader. […]"}, "LTBP1": {"tested_on": "LTBP1", "assay": "Peptide binding to LTBP1 immunoprecipitates of hypertrophic cartilage", "set-up": "species or system avian", "details": "hypertrophic cartilage immunoprecipitated with antibody to LTBP1"}, "MIA-induced OA model [3]": {"tested_on": "MIA-induced OA model", "assay": "Chronic OA pathology, histopathology grading (OARSI)", "assay_type": "in vivo, rat", "details": "250 nM every other week out to 12 weeks"}, "[4]": {"tested_on": "hypertrophic chondrocyte-produced extracellular matrix (LTBP1 in native conformation)", "assay": "Peptide binding to extracellular matrix of whole cell primary chondrocyte cultures", "set-up": "species or system avian", "protocol": "Binding assays utilizing intact hypertrophic chondrocyte-produced extracellular matrix, LTBP1 immunoprecipitates of hypertrophic chondrocyte-produced extracellular matrix and recombinant protein of the calcium-binding, EGF-like domains of LTBP1 (30) were performed as described in Materials and Methods. *=p<0.001 compared to scrambled. ***=p<0.001 compared to MMP13-derived peptide by ANOVA with Tukey's analysis. (A) Intact hypertrophic chondrocyte-produced extracellular matrix and MMP13-19 or MMP13-10 peptide binding. (B) 25 μg eluates of hypertrophic cartilage immunoprecipitated with polyclonal antibody to LTBP1 and MMP13-19 peptide binding. (C) 15 ng of recombinant protein of the calcium-binding, EGF-like domains and MMP13-19 or MMP13-10 or MMP13-6 peptide binding.\nSterna were removed from day 17 chick embryos using microsurgical techniques as previously described (D'Angelo et al., J. Bone Miner. Res. 12:1368-1377, 1997). […] The cell suspensions were then filtered through a […] filter, counted, seeded onto Falcon 6-well, tissue culture treated plates and covered with 2 ml of high glucose DMEM containing 10% NuSerum and 50 μg/ml of penicillin/streptomycin, 2 mM of L-glutamine (Invitrogen Life Technologies, Carlsbad, Calif., USA). […]"}, "MIA-induced OA model [5]": {"tested_on": "MIA-induced OA model", "assay": "Acute treatment of MIA-induced OA, week 4 micro CT", "assay_type": "in vivo, rat"}, "[6]": {"tested_on": "resting cartilage tissue extract (LTBP1-containing TGFβ large latent complex)", "assay": "Peptide binding assay, resting cartilage tissue extract", "set-up": "species or system avian", "details": "100 nM fluorescent-labeled peptide", "from_the_text": "as §1, §2"}, "MIA-induced OA model [7]": {"tested_on": "MIA-induced OA model", "assay": "Acute OA treatment, histopathology grading (OARSI)", "assay_type": "in vivo, rat", "details": "weekly injection"}, "TGFβ activation": {"tested_on": "TGFβ activation", "assay": "ELISA of endogenously activated versus total TGFβ in hypertrophic chondrocyte alginate culture", "assay_type": "cell-based, avian", "details": "24 hours; all three doses (10, 100, and 750 nM)"}}, "note": "Part of at least one peptide drawing is inferred or uncertain, most often the ends. Peptide text beside a SMILES is read from it."}
{"smiles": "CC[C@H](C)[C@H](NC(=O)[C@H](CCCCN)NC(=O)[C@H](CCCCN)NC(=O)[C@@H](NC(=O)[C@H](CCC(=O)O)NC(=O)[C@H](CCCCN)NC(=O)[C@@H]1CCCN1C(=O)[C@H](CC(C)C)NC(=O)CNC(=O)[C@H](CC(C)C)NC(=O)[C@@H](N)CCC(=O)O)C(C)C)C(=O)N[C@@H](CO)C(=O)N[C@@H](C)C(=O)N[C@@H](C)C(=O)N[C@H](C(=O)N[C@@H](Cc1c[nH]cn1)C(=O)N[C@@H](Cc1ccccc1)C(=O)N[C@@H](CCC(=O)O)C(=O)N[C@@H](CC(=O)O)C(=O)O)C(C)C", "note": "[MMP13-19 peptide] (H-ELGLPKEVKKISAAVHFED-OH)", "values": [{"measurement": "BV/TV", "setting": "[1]; Patellar cartilage d14", "result": 0.0136}, {"measurement": "Bone Volume", "setting": "[1]; Patellar cartilage d14", "result": 0.1247}, {"measurement": "Total Volume", "setting": "[1]; Patellar cartilage d14, 250 nM peptide or 50 uM BMP-7 once a week", "result": 9.1804}, {"measurement": "BV/TV", "setting": "[1]; Patellar cartilage d21", "result": 0.0248}, {"measurement": "Bone Volume", "setting": "[1]; Patellar cartilage d21", "result": 0.1912}, {"measurement": "Total Volume", "setting": "[1]; Patellar cartilage d21", "result": 7.7109}, {"measurement": "BV/TV", "setting": "[1]; Total Joint Cartilage d14", "result": 0.0284}, {"measurement": "Bone Volume", "setting": "[1]; Total Joint Cartilage d14", "result": 0.6334}, {"measurement": "Total Volume", "setting": "[1]; Total Joint Cartilage d14", "result": 22.2703}, {"measurement": "BV/TV", "setting": "[1]; Total Joint Cartilage d21", "result": 0.0253}, {"measurement": "Bone Volume", "setting": "[1]; Total Joint Cartilage d21", "result": 0.6164}, {"measurement": "Total Volume", "setting": "[1]; Total Joint Cartilage d21", "result": 24.367}, {"measurement": "binding compared to scrambled peptide control", "setting": "[2]", "result": "approximately nine-fold"}, {"measurement": "binding more than scrambled control", "setting": "LTBP1", "result": 10.5, "unit": "fold"}, {"measurement": "grading on the OA scale (histology)", "setting": "MIA-induced OA model [3]", "result": "lower grading on the OA scale than the untreated joints"}, {"measurement": "binding compared to scrambled peptide", "setting": "[4]", "result": "eight-fold"}, {"measurement": "BV/TV (ratio of bone volume to total volume)", "setting": "MIA-induced OA model [5]; Femur", "result": "0.2201 +/− 0.086"}, {"measurement": "TbN (trabecular number)", "setting": "MIA-induced OA model [5]; Femur", "result": "4.075 +/− 0.877"}, {"measurement": "TbN (trabecular number)", "setting": "MIA-induced OA model [5]; Patella", "result": "6.6528 +/− 0.564"}, {"measurement": "BV/TV (ratio of bone volume to total volume)", "setting": "MIA-induced OA model [5]; Patella, 250 nM peptide or 500 ng BMP7 weekly infrapatellar", "result": "0.7075 +/− 0.039"}, {"measurement": "BV/TV (ratio of bone volume to total volume)", "setting": "MIA-induced OA model [5]; Tibia", "result": "0.1469 +/− 0.057"}, {"measurement": "TbN (trabecular number)", "setting": "MIA-induced OA model [5]; Tibia", "result": "4.2140 +/− 1.021"}, {"measurement": "binding compared to scrambled peptide control", "setting": "[6]", "result": "five-fold"}, {"measurement": "grading on the OA scale (histology)", "setting": "MIA-induced OA model [7]", "result": "lower grading on the OA scale than the untreated joints"}, {"measurement": "endogenously activated TGFβ", "setting": "TGFβ activation", "result": "statistically significant decrease"}, {"measurement": "total amount of TGFβ produced", "setting": "TGFβ activation", "result": "not affected"}]}
